Target: T1, YePEPT (Yersinia enterocolitica, UniProt A0A2R9TD79, F311Y/K314A)
T1 construct: gene YEP4_02370

By UniProt entry, the sequences of proteins in these tests, tags left out.
UniProt A0A2R9TD79, whole entry F311Y/K314A: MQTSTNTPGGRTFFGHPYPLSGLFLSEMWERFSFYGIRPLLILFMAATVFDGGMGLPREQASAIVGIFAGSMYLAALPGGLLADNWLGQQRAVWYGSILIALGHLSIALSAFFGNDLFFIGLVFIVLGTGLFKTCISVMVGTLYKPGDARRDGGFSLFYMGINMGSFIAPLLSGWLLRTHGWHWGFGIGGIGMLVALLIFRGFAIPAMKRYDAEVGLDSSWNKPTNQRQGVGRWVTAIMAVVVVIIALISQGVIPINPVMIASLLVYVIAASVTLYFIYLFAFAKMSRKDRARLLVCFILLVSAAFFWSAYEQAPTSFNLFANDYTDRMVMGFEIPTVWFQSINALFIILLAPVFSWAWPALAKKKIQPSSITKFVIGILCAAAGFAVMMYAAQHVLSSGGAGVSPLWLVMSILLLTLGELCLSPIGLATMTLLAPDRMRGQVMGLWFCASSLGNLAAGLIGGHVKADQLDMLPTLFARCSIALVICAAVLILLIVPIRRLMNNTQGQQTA

In the case of `CC1=C(C(=O)O)N2C(=O)[C@@H](NC(=O)[C@H](N)c3ccccc3)[C@H]2SC1` [compound 5, cefalexin], the “[3H]Ala-Ala uptake competition in E. coli at 5 mM (no transport seen by SSM elec)” value is reported as “increased inhibition by all four β-lactam antibiotics containing an α-amino group (i.e., ampicillin, amoxicillin, cefalexin and cefadroxil)”.

Reference: paper PMC8390754, “Engineering and functional characterization of a proton-driven β-lactam antibiotic translocation module for bionanotechnological applications” (Scientific Reports, 2021)
